Experimental data taken from patent US7303881B2, “Antigen delivery compositions and methods of use” (priority 2004, dated 2007).
Some entries share one result that the patent states for a list of compounds.

System: TC-1 cells
Assay: Protective vaccination followed by SC challenge with TC-1 cells
Format: in vivo, C57BL/6 mice
Conditions: IV or SC days 0 and 5; 0.5×10^6 TC-1 cells SC five days later

Substance: E7 peptide: MHC class I restricted peptide from the HPV 16 E7 protein (aa 49 to 57, RAHYNIVTF), given in PBS
- Time within which tumors developed: ≤ 12 days
